# From patent publication US20250283871A1, “COMPOSITIONS AND METHODS FOR MODULATING THE INTERACTION BETWEEN SS18-SSX FUSION ONCOPROTEIN AND NUCLEOSOMES” (Dana-Farber Cancer Institute, Inc., priority 2020, published 2025)
# B1: BRPF3 (protein, UniProt Q9ULD4 1-1205, looked up)
# Bromodomain and PHD …: MRKPRRKSRQNAEGRRSPSPYSLKCSPTRETLTYAQAQRIVEVDIDGRLHRISIYDPLKIITEDELTAQDITECNSNKENSEQPQFPGKSKKPSSKGKKKESCSKHASGTSFHLPQPSFRMVDSGIQPEAPPLPAAYYRYIEKPPEDLDAEVEYDMDEEDLAWLDMVNEKRRVDGHSLVSADTFELLVDRLEKESYLESRSSGAQQSLIDEDAFCCVCLDDECHNSNVILFCDICNLAVHQECYGVPYIPEGQWLCRCCLQSPSRPVDCILCPNKGGAFKQTSDGHWAHVVCAIWIPEVCFANTVFLEPIEGIDNIPPARWKLTCYICKQKGLGAAIQCHKVNCYTAFHVTCAQRAGLFMKIEPMRETSLNGTIFTVRKTAYCEAHSPPGAATARRKGDSPRSISETGDEEGLKEGDGEEEEEEEVEEEEQEAQGGVSGSLKGVPKKSKMSLKQKIKKEPEEAGQDTPSTLPMLAVPQIPSYRLNKICSGLSFQRKNQFMQRLHNYWLLKRQARNGVPLIRRLHSHLQSQRNAEQREQDEKTSAVKEELKYWQKLRHDLERARLLIELIRKREKLKREQVKVQQAAMELELMPFNVLLRTTLDLLQEKDPAHIFAEPVNLSEVPDYLEFISKPMDFSTMRRKLESHLYRTLEEFEEDFNLIVTNCMKYNAKDTIFHRAAVRLRDLGGAILRHARRQAENIGYDPERGTHLPESPKLEDFYRFSWEDVDNILIPENRAHLSPEVQLKELLEKLDLVSAMRSSGARTRRVRLLRREINALRQKLAQPPPPQPPSLNKTVSNGELPAGPQGDAAVLEQALQEEPEDDGDRDDSKLPPPPTLEPTGPAPSLSEQESPPEPPTLKPINDSKPPSRFLKPRKVEEDELLEKSPLQLGNEPLQRLLSDNGINRLSLMAPDTPAGTPLSGVGRRTSVLFKKAKNGVKLQRSPDRVLENGEDHGVAGSPASPASIEEERHSRKRPRSRSCSESEGERSPQQEEETGMTNGFGKHTESGSDSECSLGLSGGLAFEACSGLTPPKRSRGKPALSRVPFLEGVNGDSDYNGSGRSLLLPFEDRGDLEPLELVWAKCRGYPSYPALIIDPKMPREGLLHNGVPIPVPPLDVLKLGEQKQAEAGEKLFLVLFFDNKRTWQWLPRDKVLPLGVEDTVDKLKMLEGRKTSIRKSVQVAYDRAMIHLSRVRGPHSFVTSSYL
# B2: SUCLG2 (protein, UniProt Q96I99 38-432, looked up)
# Succinate--CoA ligase …: LNLQEYQSKKLMSDNGVRVQRFFVADTANEALEAAKRLNAKEIVLKAQILAGGRGKGVFNSGLKGGVHLTKDPNVVGQLAKQMIGYNLATKQTPKEGVKVNKVMVAEALDISRETYLAILMDRSCNGPVLVGSPQGGVDIEEVAASNPELIFKEQIDIFEGIKDSQAQRMAENLGFVGPLKSQAADQITKLYNLFLKIDATQVEVNPFGETPEGQVVCFDAKINFDDNAEFRQKDIFAMDDKSENEPIENEAAKYDLKYIGLDGNIACFVNGAGLAMATCDIIFLNGGKPANFLDLGGGVKEAQVYQAFKLLTADPKVEAILVNIFGGIVNCAIIANGITKACRELELKVPLVVRLEGTNVQEAQKILNNSGLPITSAIDLEDAAKKAVASVAKK
# B3: TRMT10C (protein)
# chain: MSSKIPAVTYPKNESTPPSEELELDKWKTTMKSSVQEECVSTISSSKDEDPLAATREFIEMWRLLGREVPEHITEEELKTLMECVSNTAKKKYLKYLYTKEKVKKARQIKKEMKAAAREEAKNIKLLETTEEDKQKNFLFLRLWDRNMDIAMGWKGAQAMQFGQPLVFDMAYENYMKRKELQNTVSQLLESEGWNRRNVDPFHIYFCNLKIDGALHRELVKRYQEKWDKLLLTSTEKSHVDLFPKDSIIYLTADSPNVMTTFRHDKVYVIGSFVDKSMQPGTSLAKAKRLNLATECLPLDKYLQWEIGNKNLTLDQMIRILLCLKNNGNWQEALQFVPKRKHTGFLEISQHSQEFINRLKKAKT
# B4: FIP1L1 (protein)
# chain: MSAGEVERLVSELSGGTGGDEEEEWLYGGPWDVHVHSDLAKDLDENEVERPEEENASANPPSGIEDETAENGVPKPKVTETEDDSDSDSDDDEDDVHVTIGDIKTGAPQYGSYGTAPVNLNIKTGGRVYGTTGTKVKGVDLDAPGSINGVPLLEVDLDSFEDKPWRKPGADLSDYFNYGFNEDTWKAYCEKQKRIRMGLEVIPVTSTTNKITAEDCTMEVTPGAEIQDGRFNLFKVQQGRTGNSEKETALPSTKAEFTSPPSLFKTGLPPSRNSTSSQSQTSTASRKANSSVGKWQDRYGRAESPDLRRLPGAIDVIGQTITISRVEGRRRANENSNIQVLSERSATEVDNNFSKPPPFFPPGAPPTHLPPPPFLPPPPTVSTAPPLIPPPGFPPPPGAPPPSLIPTIESGHSSGYDSRSARAFPYGNVAFPHLPGSAPSWPSLVDTSKQWDYYARREKDRDRERDRDRERDRDRDRERERTRERERERDHSPTPSVFNSDEERYRYREYAERGYERHRASREKEERHRERRHREKEETRHKSSRSNSRRRHESEEGDSHRRHKHKKSKRSKEGKEAGSEPAPEQESTEATPAE
# B5: SLC25A12 (protein, UniProt O75746 2-678, looked up)
# Electrogenic …: AVKVQTTKRGDPHELRNIFLQYASTEVDGERYMTPEDFVQRYLGLYNDPNSNPKIVQLLAGVADQTKDGLISYQEFLAFESVLCAPDSMFIVAFQLFDKSGNGEVTFENVKEIFGQTIIHHHIPFNWDCEFIRLHFGHNRKKHLNYTEFTQFLQELQLEHARQAFALKDKSKSGMISGLDFSDIMVTIRSHMLTPFVEENLVSAAGGSISHQVSFSYFNAFNSLLNNMELVRKIYSTLAGTRKDVEVTKEEFAQSAIRYGQVTPLEIDILYQLADLYNASGRLTLADIERIAPLAEGALPYNLAELQRQQSPGLGRPIWLQIAESAYRFTLGSVAGAVGATAVYPIDLVKTRMQNQRGSGSVVGELMYKNSFDCFKKVLRYEGFFGLYRGLIPQLIGVAPEKAIKLTVNDFVRDKFTRRDGSVPLPAEVLAGGCAGGSQVIFTNPLEIVKIRLQVAGEITTGPRVSALNVLRDLGIFGLYKGAKACFLRDIPFSAIYFPVYAHCKLLLADENGHVGGLNLLAAGAMAGVPAASLVTPADVIKTRLQVAARAGQTTYSGVIDCFRKILREEGPSAFWKGTAARVFRSSPQFGVTLVTYELLQRWFYIDFGGLKPAGSEPTPKSRIADLPPANPDHIGGYRLATATFAGIENKFGLYLPKFKSPSVAVVQPKAAVAATQ
# B6: SLC25A24 (protein, UniProt Q6NUK1 1-477, looked up)
# Mitochondrial adenyl …: MLRWLRDFVLPTAACQDAEQPTRYETLFQALDRNGDGVVDIGELQEGLRNLGIPLGQDAEEKIFTTGDVNKDGKLDFEEFMKYLKDHEKKMKLAFKSLDKNNDGKIEASEIVQSLQTLGLTISEQQAELILQSIDVDGTMTVDWNEWRDYFLFNPVTDIEEIIRFWKHSTGIDIGDSLTIPDEFTEDEKKSGQWWRQLLAGGIAGAVSRTSTAPLDRLKIMMQVHGSKSDKMNIFGGFRQMVKEGGIRSLWRGNGTNVIKIAPETAVKFWAYEQYKKLLTEEGQKIGTFERFISGSMAGATAQTFIYPMEVMKTRLAVGKTGQYSGIYDCAKKILKHEGLGAFYKGYVPNLLGIIPYAGIDLAVYELLKSYWLDNFAKDSVNPGVMVLLGCGALSSTCGQLASYPLALVRTRMQAQAMLEGSPQLNMVGLFRRIISKEGIPGLYRGITPNFMKVLPAVGISYVVYENMKQTLGVTQK
# System: BAF complex subunits and histone proteins
# Experiment: Mass spectrometry proteomics of purified HA-SS18 WT and HA-SS18-SSX1 complexes (Tables 5A-5E)
# Parameters: species or system human
# Conditions: HA-SS18SSX1_NE_peptides (Table 5B); HA-SS18-SSX1 BAF complex purification from soluble nuclear extract, HEK-293T
Molecule,Total (peptides),Unique (peptides)
B1,1,1

# Same assay, conditions: HA-SS18SSX1 purification, NE (soluble nuclear extract) fraction, HEK-293T; peptides per identified protein
Molecule,Total (total peptides),Unique (unique peptides)
B2,10,10
B3,11,10
B4,11,9
B5,12,10
B6,10,10

# Same assay, conditions: HA-SS18WT_NE_peptides: HA-SS18 WT complexes purified from nuclear extract (NE), HEK-293T; label = protein identified (Gene Symbol)
Molecule,Total (peptides),Unique (peptides)
B2,10,9
B3,15,15
B4,11,9
B5,11,11
B6,10,10
